Experimental data published in article PMC7295941.
No constants are given. Whether binding was seen depends on the method and setting. Binding seen in cells or lysates may run through a third protein. Some entries that bind do so weakly or less than the wild type.

Sequences of proteins named here, by UniProt entry; tags and fusion partners are left off.
UniProt Q14680: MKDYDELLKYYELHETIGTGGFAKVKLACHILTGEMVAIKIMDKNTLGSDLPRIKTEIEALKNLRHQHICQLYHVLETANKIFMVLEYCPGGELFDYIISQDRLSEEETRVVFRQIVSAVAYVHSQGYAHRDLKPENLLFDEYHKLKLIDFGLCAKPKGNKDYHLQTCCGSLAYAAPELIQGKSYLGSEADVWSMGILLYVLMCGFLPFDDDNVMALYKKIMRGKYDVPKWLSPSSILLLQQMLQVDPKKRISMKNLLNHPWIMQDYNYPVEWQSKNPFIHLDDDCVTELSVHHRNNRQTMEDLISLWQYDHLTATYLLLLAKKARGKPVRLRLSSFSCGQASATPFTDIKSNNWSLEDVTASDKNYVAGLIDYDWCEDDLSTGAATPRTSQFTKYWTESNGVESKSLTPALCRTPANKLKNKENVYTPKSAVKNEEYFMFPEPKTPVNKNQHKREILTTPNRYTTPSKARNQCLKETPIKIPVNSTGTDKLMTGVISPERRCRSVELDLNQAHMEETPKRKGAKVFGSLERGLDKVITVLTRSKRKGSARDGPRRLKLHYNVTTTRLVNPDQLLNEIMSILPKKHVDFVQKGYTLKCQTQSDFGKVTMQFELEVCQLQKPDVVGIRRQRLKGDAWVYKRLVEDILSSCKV

Molecular target: T1, Forkhead box M1 (UniProt Q08050)
T1 sequence: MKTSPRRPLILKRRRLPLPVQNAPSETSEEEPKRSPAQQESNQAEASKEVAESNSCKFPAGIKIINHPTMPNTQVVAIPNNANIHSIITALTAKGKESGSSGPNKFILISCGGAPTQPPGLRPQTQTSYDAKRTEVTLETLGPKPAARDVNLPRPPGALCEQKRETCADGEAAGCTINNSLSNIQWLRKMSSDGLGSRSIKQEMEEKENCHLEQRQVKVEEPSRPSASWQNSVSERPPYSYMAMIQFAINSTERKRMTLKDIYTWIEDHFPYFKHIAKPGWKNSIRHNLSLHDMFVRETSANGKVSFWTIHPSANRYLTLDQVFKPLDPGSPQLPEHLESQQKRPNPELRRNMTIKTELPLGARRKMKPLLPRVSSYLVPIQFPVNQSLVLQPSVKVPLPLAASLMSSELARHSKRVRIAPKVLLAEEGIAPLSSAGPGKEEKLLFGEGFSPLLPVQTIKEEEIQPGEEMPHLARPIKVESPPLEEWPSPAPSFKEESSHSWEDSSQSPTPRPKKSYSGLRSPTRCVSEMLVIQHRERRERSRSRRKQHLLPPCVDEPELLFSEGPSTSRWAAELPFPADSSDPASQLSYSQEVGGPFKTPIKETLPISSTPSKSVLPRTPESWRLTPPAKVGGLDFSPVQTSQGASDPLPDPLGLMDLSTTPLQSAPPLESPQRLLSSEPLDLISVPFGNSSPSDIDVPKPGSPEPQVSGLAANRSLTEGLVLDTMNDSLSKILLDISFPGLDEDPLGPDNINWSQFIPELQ
Test: co-IP; extracts of MDA-MB-231/DOC-FoxM1TF cells incubated with or without the indicated drugs (DOC, MA) for 24 h; extracts with antibody at 4°C for 24 h, then protein A-Sepharose 4B or beads at 4°C for 4 h; western blot

Maternal embryonic leucine-zipper kinase (from UniProt Q14680 1-651) (enzyme)
binding: binds
